Measured values reported in US20250270566.
pKd: −log10 of the molar value. For some of these results: Where cells or extracts were used, other partners may take part. For some of these results: Negatives hold for the conditions tested. For some of these results: Where a protein sequence is shown, tags need not be part of it. For at least one entry, the source does not settle the construct or the ends of the probe.

Columns and labels:
GFP = GFP (UniProt P42212); test: binding assay; settings: CITED Shui et al. 2012, 295.15 K; purified recombinant protein
[1] = molecular target: T1, OGT endogenous (Homo sapiens) (UniProt O15294); test: pull-down; settings: protein in cells, label: 5'-32P (dot blot)
T1 sequence (looked up, limits assumed): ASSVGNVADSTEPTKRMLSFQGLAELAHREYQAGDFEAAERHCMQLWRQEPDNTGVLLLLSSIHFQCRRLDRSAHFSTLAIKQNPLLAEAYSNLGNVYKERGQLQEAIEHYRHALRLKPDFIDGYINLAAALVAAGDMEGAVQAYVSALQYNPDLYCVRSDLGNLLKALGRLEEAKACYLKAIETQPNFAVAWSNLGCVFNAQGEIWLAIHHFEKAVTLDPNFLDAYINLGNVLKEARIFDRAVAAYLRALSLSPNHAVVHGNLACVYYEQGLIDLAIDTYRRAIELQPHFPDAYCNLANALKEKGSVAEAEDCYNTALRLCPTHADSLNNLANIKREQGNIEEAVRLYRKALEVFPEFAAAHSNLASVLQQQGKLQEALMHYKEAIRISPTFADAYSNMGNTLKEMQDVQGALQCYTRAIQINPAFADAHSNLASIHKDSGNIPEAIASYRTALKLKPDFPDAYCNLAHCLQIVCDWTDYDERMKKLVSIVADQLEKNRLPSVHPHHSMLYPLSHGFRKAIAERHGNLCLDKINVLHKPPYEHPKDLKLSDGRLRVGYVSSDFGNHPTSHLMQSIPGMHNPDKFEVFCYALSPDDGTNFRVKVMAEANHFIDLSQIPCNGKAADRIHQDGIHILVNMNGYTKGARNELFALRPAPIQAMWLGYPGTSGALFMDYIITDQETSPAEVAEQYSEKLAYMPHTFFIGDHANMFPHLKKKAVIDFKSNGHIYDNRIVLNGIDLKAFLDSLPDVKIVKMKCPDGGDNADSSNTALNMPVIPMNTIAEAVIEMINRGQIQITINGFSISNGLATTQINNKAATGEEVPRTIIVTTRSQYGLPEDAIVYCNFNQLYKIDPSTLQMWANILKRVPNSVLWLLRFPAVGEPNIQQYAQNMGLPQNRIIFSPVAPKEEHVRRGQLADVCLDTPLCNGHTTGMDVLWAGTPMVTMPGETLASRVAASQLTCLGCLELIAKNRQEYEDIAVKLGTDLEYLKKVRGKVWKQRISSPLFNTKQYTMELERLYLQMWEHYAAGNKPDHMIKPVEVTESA

[2] = system: OGT TPR domain (tetratricopeptide repeat domain); test: SPR; settings: ABB 5 mM MgCl2, 25 C; purified recombinant protein; protein details: His tag (Ni-NTA purified, pET24a-TPR, E. coli); variant of T1

Q: How did the pKd (GFP) turn out when “AGCUUCUGGACUGCGAUGGGAGCACGAAACGUCGUGGCGCAAUUGGGUGGGGAAAGUCCUUAAAAGAGGGCCACCACAGAAGCU [AP3]” was run?
A: The pKd was 8.29.

Q: What does the source list for “GGGAGAAUCACUUACGGAUCCUCGUUAAGUGGCUCUCAGUCGCCCGUAACUCCGAUGCCGAUGCAGCGGCGACAACUGCACCCAAGGCUCGGAAGCUU [T1]”?
A: binding result ([1]; RNA-IP RT-qPCR from T1-expressing HEK293T, 1 mM Mg2+): binds; binding result ([1]; RNA-IP without Mg2+, T1 no longer enriched): no binding

Q: Does “GGGAGAAUCACUUACGGAUCCUCGUUAAGUGGCUCUCAGUCGCCCGUAACUCCGAUGCCGAUGCAGCGGCGACAACUGCACCCAAGGCUCGGAAGCUU [T1 with 3' A28 tail]” bind [2]?
A: Result: binds
